Results taken from PubChem BioAssay AID651768 (National Center for Advancing Translational Sciences (NCATS), 2012).
Hit rate of the full screen: of about 360,000 compounds, about 1,700 (0.47%) were called active. The shares of active, inactive and inconclusive entries below differ from those in the screen. Calls come from the whole dose curve; as a rule, active = well fitted inhibition curve with a large enough effect; inconclusive = small, poorly fitted or top-dose-only effect; inactive = no such curve, though single readings can be large or run the other way. Where the call is inconclusive, the potency comes from a doubtful curve fit.
% is set by controls: 0 for no effect and ±100 for the full control effect; potency is the fitted concentration of half-maximal effect.
Note: nearly all actives have a fitted effect of over 55% in size.

The chains behind the UniProt entries cited, without tags or fusion partners.
UniProt Q14191, whole entry, looked up: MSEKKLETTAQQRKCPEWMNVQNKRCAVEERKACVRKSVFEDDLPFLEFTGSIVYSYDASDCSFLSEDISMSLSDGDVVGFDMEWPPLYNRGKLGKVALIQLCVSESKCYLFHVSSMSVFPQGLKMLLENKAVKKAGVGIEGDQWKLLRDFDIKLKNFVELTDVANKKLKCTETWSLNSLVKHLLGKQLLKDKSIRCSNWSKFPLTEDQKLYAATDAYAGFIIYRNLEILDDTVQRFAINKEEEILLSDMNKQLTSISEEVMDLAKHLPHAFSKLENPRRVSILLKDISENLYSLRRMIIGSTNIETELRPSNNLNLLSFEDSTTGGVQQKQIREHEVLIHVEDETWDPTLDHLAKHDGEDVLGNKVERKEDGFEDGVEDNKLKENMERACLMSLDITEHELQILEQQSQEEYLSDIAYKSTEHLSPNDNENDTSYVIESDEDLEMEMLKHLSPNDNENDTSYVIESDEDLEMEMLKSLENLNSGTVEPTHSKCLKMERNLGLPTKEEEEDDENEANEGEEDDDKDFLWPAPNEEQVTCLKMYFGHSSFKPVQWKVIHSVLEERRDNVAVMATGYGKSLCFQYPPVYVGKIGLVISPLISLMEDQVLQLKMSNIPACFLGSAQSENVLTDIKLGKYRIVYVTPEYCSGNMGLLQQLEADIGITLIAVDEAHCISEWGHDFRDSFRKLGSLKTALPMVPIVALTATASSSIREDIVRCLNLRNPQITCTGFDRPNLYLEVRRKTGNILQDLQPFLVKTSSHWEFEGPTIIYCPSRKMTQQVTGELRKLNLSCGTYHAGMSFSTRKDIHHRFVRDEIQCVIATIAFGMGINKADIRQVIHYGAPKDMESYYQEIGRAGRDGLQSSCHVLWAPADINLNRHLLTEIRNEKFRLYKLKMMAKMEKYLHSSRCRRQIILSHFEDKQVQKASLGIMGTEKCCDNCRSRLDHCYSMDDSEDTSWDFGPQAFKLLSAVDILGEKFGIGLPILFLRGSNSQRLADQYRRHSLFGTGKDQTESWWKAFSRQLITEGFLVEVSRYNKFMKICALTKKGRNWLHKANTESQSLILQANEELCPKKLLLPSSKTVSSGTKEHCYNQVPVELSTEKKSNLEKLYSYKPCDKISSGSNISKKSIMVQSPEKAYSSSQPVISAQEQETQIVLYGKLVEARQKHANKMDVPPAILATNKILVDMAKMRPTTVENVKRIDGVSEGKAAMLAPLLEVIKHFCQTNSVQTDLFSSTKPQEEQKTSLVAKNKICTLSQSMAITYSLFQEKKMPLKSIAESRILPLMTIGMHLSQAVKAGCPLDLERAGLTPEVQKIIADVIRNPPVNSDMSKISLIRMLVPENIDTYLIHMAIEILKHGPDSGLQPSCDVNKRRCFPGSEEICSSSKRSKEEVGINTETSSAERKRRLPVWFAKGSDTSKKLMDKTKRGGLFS

The compounds below were run against Bifunctional 3'-5' exonuclease/ATP-dependent helicase WRN (Homo sapiens) (UniProt Q14191) (assay: qHTS for Inhibitors of WRN Helicase). Details: WRN helicase unwinding, fluorescent forked duplex, kinetic; activity change, negative = inhibition: at 114 µM (top of the series) unless noted.
Summary of the method: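 Enzyme (20 nM final) and test compound sit together 15 min at room temperature before substrate addition. Substrate is a single-forked duplex oligonucleotide (100 nM) labelled with fluorophore and quencher, with 2 mM ATP; helicase unwinding raises red fluorescence, read kinetically.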
With N=C1S/C(=C\c2ccccc2F)C(=O)N1c1ccc(F)cc1 the Potency was “inactive”. For O=c1[nH][nH]c(C(F)(F)F)c1C=Nc1cccc(Cl)c1, the Potency was “inactive”. In the case of CCOc1ccc(Nc2nc(NCC3CCCO3)c3ccccc3n2)cc1 (stereo unspecified), the Potency is reported as inconclusive: 56.2 µM [inhibitor, partial curve]. In the case of COc1cccc(CN(C)Cc2cc(=O)oc3cc(O)c(Cl)cc23)c1, the Potency is reported as “inactive”. In the case of CCOC(=O)c1c(C)[nH]c(C)c1C(=O)COc1ncnc2ccccc12, the Potency is reported as “inactive”. COc1ccc(OC)c2sc(NC(=O)c3cccc(N4C(=O)CCC4=O)c3)nc12 was tested, and the Potency was inconclusive: 50.1 µM [inhibitor, partial curve]. With CCOC(=O)C1CCN(c2nc(N)c3c(N)nc(SCC(=O)O)cc3c2C#N)CC1 the Potency was active: 44.7 µM. CCn1nnc(NC(=O)c2cc(Cl)c(OC)c(Cl)c2)n1 was tested, and the Potency was inconclusive: 17.8 µM [inhibitor, full curve, poor fit]. In the case of Cc1c(N=Nc2c(-c3ccc([N+](=O)[O-])cc3)[nH]n(C(N)=S)c2=O)cccc1[N+](=O)[O-], the Potency is reported as inconclusive: 6.7 µM [inhibitor, single point]. In the case of O=S(=O)(NCCN1CCOCC1)c1ccc(F)c(Cl)c1, the Potency is reported as inconclusive: 56.2 µM [inhibitor, partial curve]. In the case of Cc1cccc2sc(NC(=O)c3cc(S(=O)(=O)N(C)C)ccc3N3CCCC3)nc12, the Potency is reported as inconclusive: 39.8 µM [inhibitor, single point]. In the case of C=CCn1c(SCC(=O)c2ccc(O)c(O)c2)nnc1-c1cccc(OC)c1, the Potency is reported as inconclusive: 2.67 µM [inhibitor, partial curve]. In the case of CC1(C)Cc2c(cnn2-c2cccc(F)c2)C(NC(=O)Cn2cccn2)C1 (stereo unspecified), the Potency is reported as inconclusive: 89.1 µM [inhibitor, single point]. For O=C(O)c1ccccc1N=Nc1c(O)[nH]c2ccc([N+](=O)[O-])cc12, the Potency was inconclusive: 25.1 µM [inhibitor, full curve, poor fit]. With N#CC1=C(N)OC2=C(C(=O)CC(c3ccccc3)C2)C1c1ccc2c(c1)OCO2 (stereo unspecified) the Potency was “inactive”. For CCOCc1c(C(=O)OCC(=O)Nc2ccc(C)c(S(=O)(=O)N(C)C)c2)oc2ccccc12, the Potency was “inactive”. For O=C(Cc1coc2cc(O)ccc12)NNC(=O)c1ccc(Br)s1, the Potency was inconclusive: 25.1 µM [inhibitor, full curve, poor fit]. For CCN(CC(=O)Nc1ccc(OC)cc1)C(=O)Cc1cccs1, the Potency was inconclusive: 56.2 µM [inhibitor, partial curve]. With O=C1/C(=C\c2ccc(O)cc2)SC(=S)N1/N=C/c1ccc(O)cc1 the Potency was inconclusive: 63.1 µM [inhibitor, partial curve]. In the case of CC1=Nc2ccccc2/C1=C/c1c(C)[nH]c2ccccc12, the Potency is reported as “inactive”. S=C(Nc1cccnc1)Nc1cccc2cnccc12 was tested, and the Potency was “inactive”. With O=C(CSc1nnc(Cc2csc(Nc3cccc(Cl)c3)n2)o1)N1CCc2ccccc21 the Potency was “inactive”. For CN1CCC[C@H]1CCNc1ccc2c(=O)c3ccccc3n(C)c2c1, the Potency was inconclusive: 79.4 µM [inhibitor, partial curve]. With C=C1C(=O)c2sccc2C(c2ccc(OC)c(OC)c2)C1COC(C)=O (stereo unspecified) the Potency was inconclusive: 10 µM [inhibitor, partial curve, poor fit]. With CCOC(=O)c1ccc(N=c2ssnc2Cl)cc1 the Potency was active: 22.4 µM. For O=C(Nc1ccccc1C(=O)O)c1ccc(NC(=O)C2CCCO2)cc1 (stereo unspecified), the Potency was inconclusive: 22.4 µM [inhibitor, full curve]. In the case of COc1cccc(C=C2SC(=S)NC2=O)c1, the Potency is reported as inconclusive: 17.8 µM [inhibitor, full curve, poor fit]. For NC(=S)NN=Cc1ccc(-c2ccc(S(=O)(=O)Nc3ncccn3)cc2)o1, the Potency was active: 25.1 µM. NNC(=O)c1ccc2[nH]c3c(c2c1)CCCC3 was tested, and the Potency was “inactive”. For O=C(NC(Cc1ccccc1)C(=O)O)/C(=C\c1ccc([N+](=O)[O-])cc1)NC(=O)c1ccco1 (stereo unspecified), the Potency was inconclusive: 50.1 µM [inhibitor, partial curve]. For CNc1oc(-c2ccccc2F)nc1S(=O)(=O)c1ccc(C)cc1, the Potency was inconclusive: 31.6 µM [inhibitor, single point]. CCOc1ccc(C(O)(c2ccccc2)C(CN2CCCC2)c2ccccc2)cc1 (stereo unspecified) was tested, and the Potency was inconclusive: 79.4 µM [inhibitor, single point]. CS(=O)(=O)N1CCC(C(=O)Nc2ccc(Cl)c(Cl)c2)CC1 was tested, and the Potency was inconclusive: 70.8 µM [inhibitor, single point]. NNC(=S)Nc1cccc(-c2n[nH]c(=S)o2)c1 was tested, and the activity change, negative = inhibition was inactive: -17.3% [at 11.6 µM]. In the case of Oc1ccc(/C=C/c2ccnc3ccccc23)cc1, the Potency is reported as “inactive”. In the case of COc1ccc(-c2nc3ncccn3c2Nc2ccccc2)cc1, the Potency is reported as inconclusive: 39.8 µM [inhibitor, single point]. In the case of CN(CCC#N)S(=O)(=O)c1ccc2[nH]cc(C(=O)NCCc3ccccc3)c(=O)c2c1, the Potency is reported as inconclusive: 10 µM [inhibitor, partial curve]. For Cc1ccc(/C=N/N=C/c2ccc(C)s2)s1, the Potency was inconclusive: 39.8 µM [inhibitor, single point]. CC(C)(C)CN1CCN(CCCc2ccccc2)C(CCO)C1 (stereo unspecified) was tested, and the Potency was inconclusive: 10 µM [inhibitor, full curve, poor fit]. In the case of O=C(O)C1CCCCC1C(=O)NCCCc1ccccc1 (stereo unspecified), the Potency is reported as “inactive”. O=C(O)C1CSC(c2coc3ccccc3c2=O)N1 (stereo unspecified) was tested, and the Potency was inconclusive: 39.8 µM [inhibitor, single point]. With COc1cc(/C=C2\SC(=S)N(NC(=O)c3ccc(O)c(OC)c3)C2=O)ccc1O the Potency was active: 39.8 µM. In the case of COc1ccc(-c2cc(N)n(S(=O)(=O)c3c(F)c(F)c(F)c(F)c3F)n2)cc1OC, the Potency is reported as inconclusive: 31.6 µM [inhibitor, full curve]. For c1ccc(CSc2nnc3c(n2)OC(c2ccco2)Nc2ccccc2-3)cc1 (stereo unspecified), the Potency was inconclusive: 25.1 µM [inhibitor, single point]. For O=c1[nH]sc2ccccc12, the Potency was active: 31.6 µM. For CN(NC1OC(=O)c2ccccc21)c1ccc(Cl)cc1[N+](=O)[O-] (stereo unspecified), the Potency was inconclusive: 5.62 µM [inhibitor, full curve, poor fit]. In the case of O=c1cc(-c2ccc(O)c(O)c2)oc2cc(O)c(C3OC(CO)C(O)C(O)C3O)c(O)c12 (stereo unspecified), the Potency is reported as inconclusive: 31.6 µM [inhibitor, partial curve]. In the case of Cc1cc(C(=O)O)ccc1-c1ccc(/C=C2\NC(=O)N(Cc3ccc(F)cc3)C2=O)o1, the Potency is reported as inconclusive: 50.1 µM [inhibitor, partial curve]. In the case of CC1CCCCC12NC(=O)N(CC(=O)Nc1sc3c(c1C(N)=O)CCC3)C2=O (stereo unspecified), the Potency is reported as inconclusive: 56.2 µM [inhibitor, partial curve, poor fit]. For COc1ccc2c(c1OC)C(=O)N1c3ccccc3N=C(c3ccc([N+](=O)[O-])cc3)CC21 (stereo unspecified), the Potency was inconclusive: 10 µM [inhibitor, partial curve]. In the case of Cc1cccc(CSC2=NCCN2S(=O)(=O)c2ccc(F)cc2)c1, the Potency is reported as inconclusive: 79.4 µM [inhibitor, single point]. In the case of C=CCOc1c(Cl)cc(C(=S)N2CCCC2)cc1OCC, the Potency is reported as “inactive”. Cc1c(NC(=O)c2ccc(Cl)c(S(=O)(=O)N3CCOCC3)c2)c(=O)n(-c2ccccc2)n1C was tested, and the Potency was inconclusive: 100 µM [inhibitor, single point]. With N#Cc1nc(-c2cccc3ccccc23)oc1NCC1CCCO1 (stereo unspecified) the Potency was inconclusive: 3.55 µM [inhibitor, full curve, poor fit]. With COc1ccc(S(=O)NC2CCCCC2)c(OC)c1C (stereo unspecified) the Potency was “inactive”. With Cc1cc(/C=C2\Sc3ccccc3N2C)cc(C)[n+]1CC1CCCO1 (stereo unspecified) the Potency was inconclusive: 35.5 µM [inhibitor, single point]. With O=C(O)c1c2c(nc3ccc(S(=O)(=O)N4CCC(C(=O)NC5CCCCCC5)CC4)cc13)CCCC2 the activity change, negative = inhibition was inactive: -8.34% [at 11.6 µM]. Cc1ccc(OC(=O)c2ccc3c(=O)n4c(nc3c2)CCC4)cc1 was tested, and the Potency was “inactive”. For C=C/C(C)=C/CC1C(=C)CCC2C(C)(C(=O)O)CCCC12C (stereo unspecified), the Potency was inconclusive: 50.1 µM [inhibitor, partial curve]. For CC1(C(=O)NC2CCCCC2)CCC(=O)N1CCOc1ccccc1 (stereo unspecified), the Potency was “inactive”. In the case of Cc1c(Cc2ccc3c(c2)OCO3)sc(NC(=O)c2cccc3ccccc23)c1C(N)=O, the Potency is reported as “inactive”. In the case of CSCCC(C(=O)OCC(=O)c1ccc(C)c(C)c1)N1C(=O)c2ccccc2C1=O (stereo unspecified), the Potency is reported as inconclusive: 28.2 µM [inhibitor, single point]. For O=C(O)CN1C(=O)/C(=C\c2cccc(OCc3ccc(Cl)cc3Cl)c2)SC1=S, the activity change, negative = inhibition was inactive: -14.7% [at 11.6 µM]. In the case of Cn1ccc(=Nc2ccc(NC(=O)c3ccc(N=c4ccn(C)c5ccc([N+](=O)[O-])cc45)cc3)cc2)cc1, the Potency is reported as active: 39.8 µM. With Cc1ccc(-n2c(SCC(=O)Nc3ccc4c5c(cccc35)CC4)nc(O)cc2=O)cc1 the Potency was “inactive”. In the case of O=C(O)/C=C/c1coc2ccccc2c1=O, the Potency is reported as “inactive”. In the case of Cc1c(C(=O)N2CCCC2)sc(NC(=O)c2ccc(Cl)cc2)c1C#N, the Potency is reported as “inactive”. For OCC1OC(n2ccc3c(NO)ncnc32)C(O)C1O (stereo unspecified), the Potency was inconclusive: 20 µM [inhibitor, single point]. Cc1cccc(NCc2ccc(O)c3ncccc23)c1C was tested, and the Potency was inconclusive: 56.2 µM [inhibitor, partial curve]. For O=C(CSc1nc2ccccc2o1)N/N=C/c1ccc(O)c(O)c1, the Potency was active: 8.91 µM. With N#Cc1cc(C(=O)c2cc(F)ccc2O)cn(-c2nccs2)c1=O the Potency was inconclusive: 50.1 µM [inhibitor, partial curve].
